Assay: general procedure: solution-phase peptide synthesis; PyBOP / diisopropylethylamine; MNBA/DMAP for macrolactonisation
Conditions: for step yield: late stage modification step; for oxidative folding yield: oxidative folding step

Row | Substance | step yield [%] | other results
1 | 3-((E)-(1S,10S,21R)-7,7-cyclopropyl-3,6,9,19,22-pentaoxo-2-oxa-12,13-dithia-5,8,20,23-tetraaza-bicyclo[8.7.6]tricos-16-en-21-yl)-N-(2-morpholin-4-yl-ethyl)-propionamide | 34 | 
2 | 3-((E)-(1 S,10S,21R)-7,7-Cyclopropyl-3,6,9,19,22-pentaoxo-2-oxa-12,13-dithia-5,8,20,23-tetraaza-bicyclo[8.7.6]tricos-16-en-21-yl)-N-(2-methoxy-ethyl)-propionamide | 47 | 
3 | 3-((E)-(1S,9S,20R)-5-Hydroxy-6,6-cyclopropyl-3,8,18,21-tetraoxo-2-oxa-11,12-dithia-7,19,22-triaza-bicyclo[7.7.6]docos-15-en-20-yl)-propionic acid tert-butyl ester [XIa isomer 2] |  | oxidative folding yield (run 1): 26%
4 | 3-((E)-(1S,10S,21R)-7,7-Cyclopropyl-3,6,9,19,22-pentaoxo-2-oxa-12,13-dithia-5,8,20,23-tetraaza-bicyclo[8.7.6]tricos-16-en-21-yl)-propionic acid tert-butyl ester |  | oxidative folding yield: 65%
5 | 3-((E)-(1S,10S,21R)-7-cyclobutyl-3,6,9,19,22-pentaoxo-2-oxa-12,13-dithia-5,8,20,23-tetraaza-bicyclo[8.7.6]tricos-16-en-21-yl)-propionic acid | 76 | 
6 | 3-((E)-(1S,10S,21R)-7,7-Dimethyl-3,6,9,19,22-pentaoxo-2-oxa-12,13-dithia-5,8,20,23-tetraaza-bicyclo[8.7.6]tricos-16-en-21-yl)-N-(2,2,2-trifluoro-ethyl)-propionamide | 22 | 
7 | N-(2-Cyano-ethyl)-3-((E)-(1S,10S,21R)-7,7-cyclopropyl-3,6,9,19,22-pentaoxo-2-oxa-12,13-dithia-5,8,20,23-tetraaza-bicyclo[8.7.6]tricos-16-en-21-yl)-propionamide | 29 | 
8 | 3-((E)-(1S,9S,20R)-5-Hydroxy-6,6-cyclopropyl-3,8,18,21-tetraoxo-2-oxa-11,12-dithia-7,19,22-triaza-bicyclo[7.7.6]docos-15-en-20-yl)-propionic acid | 44 | 
9 | (E)-(1S,10S,21R)-7,7-Cyclopropyl-21-[3-(4-methyl-piperazin-1-yl)-3-oxo-propyl]-2-oxa-12,13-dithia-5,8,20,23-tetraaza-bicyclo[8.7.6]tricos-16-ene-3,6,9,19,22-pentaone | 47 | 
10 | 3-((E)-(1S,9S,20R)-5-Hydroxy-6,6-cyclopropyl-3,8,18,21-tetraoxo-2-oxa-11,12-dithia-7,19,22-triaza-bicyclo[7.7.6]docos-15-en-20-yl)-N-(2,2,2-trifluoro-ethyl)-propionamide | 58 | 
11 | 3-((E)-(1S,10S,21R)-7,7-Dimethyl-3,6,9,19,22-pentaoxo-2-oxa-12,13-dithia-5,8,20,23-tetraaza-bicyclo[8.7.6]tricos-16-en-21-yl)-propionic acid tert-butyl ester |  | oxidative folding yield: 81%
12 | 3-((E)-(1S,9S,20R)-5-Hydroxy-6,6-cyclopropyl-3,8,18,21-tetraoxo-2-oxa-11,12-dithia-7,19,22-triaza-bicyclo[7.7.6]docos-15-en-20-yl)-propionic acid tert-butyl ester [XIa isomer 1] |  | oxidative folding yield (run 1): 32%
13 | 3-((E)-(1S,10S,21R)-7,7-cyclopropyl-3,6,9,19,22-pentaoxo-2-oxa-12,13-dithia-5,8,20,23-tetraaza-bicyclo[8.7.6]tricos-16-en-21-yl)-N,N-diethyl-propionamide | 46 | 
14 | (E)-(1S,10S,21R)-7,7-Cyclopropyl-21-(3-morpholin-4-yl-3-oxo-propyl)-2-oxa-12,13-dithia-5,8,20,23-tetraaza-bicyclo[8.7.6]tricos-16-ene-3,6,9,19,22-pentaone | 27 | 
15 | 3-((E)-(1S,10S,21R)-7,7-Cyclopropyl-3,6,9,19,22-pentaoxo-2-oxa-12,13-dithia-5,8,20,23-tetraaza-bicyclo[8.7.6]tricos-16-en-21-yl)-propionic acid | 95 | 
16 | 3-((E)-(1S,10S,21R)-7-cyclobutyl-3,6,9,19,22-pentaoxo-2-oxa-12,13-dithia-5,8,20,23-tetraaza-bicyclo[8.7.6]tricos-16-en-21-yl)-propionic acid tert-butyl ester |  | oxidative folding yield: 93%
17 | 3-((E)-(1S,10S,21R)-7,7-Dimethyl-3,6,9,19,22-pentaoxo-2-oxa-12,13-dithia-5,8,20,23-tetraaza-bicyclo[8.7.6]tricos-16-en-21-yl)-propionic acid | 83 | 

Reference: US8614193 (dated 2013)
